US20190328766A1, “COMPOSITIONS AND METHODS FOR SUPPRESSING MSUT2” (United States Government As Represented By The Department …, published 2019)
No constants are given. Whether binding was seen depends on the method and setting. Binding seen in cells or lysates may run through a third protein. Some binding calls cover weakened binding; strength is not graded here. Where a sequence is shown, tags or fusion partners need not be part of it.

Assays:
[1] = molecular target: T1, 35S radiolabeled PABPN1 (human) (UniProt Q86U42); experiment: in vitro GST pulldown (restated)
T1 sequence (35S radiolabel (in vitro translated), looked up): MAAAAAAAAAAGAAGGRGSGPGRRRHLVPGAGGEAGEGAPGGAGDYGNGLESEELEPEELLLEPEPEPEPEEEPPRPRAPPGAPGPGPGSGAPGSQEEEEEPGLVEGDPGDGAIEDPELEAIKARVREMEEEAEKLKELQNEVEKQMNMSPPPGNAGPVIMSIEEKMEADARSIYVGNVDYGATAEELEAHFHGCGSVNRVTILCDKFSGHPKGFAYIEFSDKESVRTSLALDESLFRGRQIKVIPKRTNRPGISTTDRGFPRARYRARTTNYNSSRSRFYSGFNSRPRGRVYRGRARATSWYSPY

[2] = molecular target: T1, 35S radiolabeled PABPN1 (human); experiment: GST pulldown, recombinant human proteins
[3] = molecular target: T1, 35S radiolabeled PABPN1 (human); experiment: GST pulldown, 35S-labeled PABPN1, RNAse pretreated

binding [1]: binds | binding [2]: binds | binding [3]: binds
B1: recombinant GST-MSUT2 Zinc Finger (ZF) fusion protein (protein, human, UniProt Q6PJT7 595-736, looked up, not shown: a dimerising Fc or GST)
chain: EKLLERCKYWPACKNGDECAYHHPISPCKAFPNCKFAEKCLFVHPNCKYDAKCTKPDCPFTHVSRRIPVLSPKPAVAPPAPPSSSQLCRYFPACKKMECPFYHPKHCRFNTQCTRPDCTFYHPTINVPPRHALKWIRPQTSE
